No constants are given. Whether binding was seen depends on the method and setting. In cells and extracts the contact can be indirect. Some entries that bind do so weakly or less than the wild type. For part of these data: Where a sequence is shown, tags or fusion partners need not be part of it.

For assay [1], the target named is T1, endogenous SETD5 (human (endogenous; cell line not shown, all cell lines of the paper are human)) (UniProt Q9C0A6).
T1 sequence: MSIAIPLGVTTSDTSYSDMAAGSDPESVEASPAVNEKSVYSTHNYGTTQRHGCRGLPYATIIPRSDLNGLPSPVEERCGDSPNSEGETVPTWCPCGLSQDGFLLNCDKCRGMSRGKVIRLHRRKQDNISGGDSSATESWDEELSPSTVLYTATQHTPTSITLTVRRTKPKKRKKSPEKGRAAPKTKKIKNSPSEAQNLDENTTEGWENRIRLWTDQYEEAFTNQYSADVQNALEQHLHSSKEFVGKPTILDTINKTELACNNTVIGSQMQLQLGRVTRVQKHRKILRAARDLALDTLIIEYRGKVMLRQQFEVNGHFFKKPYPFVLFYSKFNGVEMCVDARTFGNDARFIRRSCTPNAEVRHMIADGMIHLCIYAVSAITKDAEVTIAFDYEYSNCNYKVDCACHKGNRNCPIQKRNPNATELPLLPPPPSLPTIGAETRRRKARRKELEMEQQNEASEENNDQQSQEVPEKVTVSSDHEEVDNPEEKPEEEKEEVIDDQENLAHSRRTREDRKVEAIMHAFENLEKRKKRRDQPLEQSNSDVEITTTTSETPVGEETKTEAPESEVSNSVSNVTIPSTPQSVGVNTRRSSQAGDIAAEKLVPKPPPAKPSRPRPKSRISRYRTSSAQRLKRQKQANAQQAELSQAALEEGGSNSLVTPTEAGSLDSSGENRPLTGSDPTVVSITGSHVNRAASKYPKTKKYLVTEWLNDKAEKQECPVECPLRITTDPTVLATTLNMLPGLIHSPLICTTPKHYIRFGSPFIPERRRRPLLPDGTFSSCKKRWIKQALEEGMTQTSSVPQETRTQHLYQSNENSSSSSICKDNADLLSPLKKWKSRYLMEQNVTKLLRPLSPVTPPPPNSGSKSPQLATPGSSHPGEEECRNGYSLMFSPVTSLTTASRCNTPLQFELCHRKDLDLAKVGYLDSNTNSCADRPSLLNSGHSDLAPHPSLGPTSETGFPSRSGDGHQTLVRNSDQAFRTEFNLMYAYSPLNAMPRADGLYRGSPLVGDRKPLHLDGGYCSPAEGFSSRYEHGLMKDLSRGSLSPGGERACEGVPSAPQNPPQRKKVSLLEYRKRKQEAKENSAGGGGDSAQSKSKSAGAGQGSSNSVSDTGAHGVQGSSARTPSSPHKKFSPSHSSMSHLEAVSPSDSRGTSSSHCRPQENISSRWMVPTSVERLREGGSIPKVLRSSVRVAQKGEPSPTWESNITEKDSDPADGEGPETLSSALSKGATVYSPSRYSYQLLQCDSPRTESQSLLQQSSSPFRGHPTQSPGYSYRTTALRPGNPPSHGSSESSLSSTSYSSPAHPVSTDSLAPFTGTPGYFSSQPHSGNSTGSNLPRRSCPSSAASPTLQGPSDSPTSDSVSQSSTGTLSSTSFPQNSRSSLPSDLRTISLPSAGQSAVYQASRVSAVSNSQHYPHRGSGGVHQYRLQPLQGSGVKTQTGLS
Description: co-IP; endogenous proteins; IP assay (Supplementary Fig. S4A); cell line and precipitating antibody not shown.

Assay [2] has as its target T2, SETD5 deletion mutant ΔC, lacking the C-terminal region (892–1443) (human) (UniProt Q9C0A6).
T2 sequence: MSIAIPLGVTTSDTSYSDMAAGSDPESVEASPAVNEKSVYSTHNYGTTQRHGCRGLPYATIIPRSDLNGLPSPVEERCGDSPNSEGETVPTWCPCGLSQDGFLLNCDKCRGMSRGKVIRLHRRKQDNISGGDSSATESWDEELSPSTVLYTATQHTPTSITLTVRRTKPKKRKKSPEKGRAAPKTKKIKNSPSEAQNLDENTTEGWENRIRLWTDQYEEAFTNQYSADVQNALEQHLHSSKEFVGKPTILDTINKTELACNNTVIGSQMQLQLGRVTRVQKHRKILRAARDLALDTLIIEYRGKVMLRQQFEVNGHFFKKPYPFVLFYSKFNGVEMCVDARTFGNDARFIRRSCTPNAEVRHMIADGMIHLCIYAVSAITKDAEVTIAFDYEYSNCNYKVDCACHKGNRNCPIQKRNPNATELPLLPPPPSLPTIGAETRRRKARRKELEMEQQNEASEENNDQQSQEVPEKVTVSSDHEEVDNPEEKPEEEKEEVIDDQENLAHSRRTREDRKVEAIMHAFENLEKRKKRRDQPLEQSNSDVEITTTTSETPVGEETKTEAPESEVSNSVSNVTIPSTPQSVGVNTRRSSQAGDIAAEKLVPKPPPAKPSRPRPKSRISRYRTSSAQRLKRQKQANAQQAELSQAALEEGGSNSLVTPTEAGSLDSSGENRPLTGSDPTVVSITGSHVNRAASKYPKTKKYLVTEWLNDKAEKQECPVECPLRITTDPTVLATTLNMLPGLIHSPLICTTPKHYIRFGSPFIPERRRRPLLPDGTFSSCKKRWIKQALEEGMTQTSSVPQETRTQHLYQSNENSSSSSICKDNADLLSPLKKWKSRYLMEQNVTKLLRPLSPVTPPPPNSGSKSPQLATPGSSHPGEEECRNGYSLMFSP
Description: co-IP; SETD5-depleted HCT116 cells with SETD5 WT or ΔC and MYC-tagged OGT, 100 nM OGAi for 24 h; IP assay, western blot (Fig. 4C).

Assay [3] has as its target T3, Flag-tagged SETD5, full-length wild type, in HCT116 cells (human) (UniProt Q9C0A6).
T3 sequence (chain, O-GlcNAcylated (reduced with OSMI-1)): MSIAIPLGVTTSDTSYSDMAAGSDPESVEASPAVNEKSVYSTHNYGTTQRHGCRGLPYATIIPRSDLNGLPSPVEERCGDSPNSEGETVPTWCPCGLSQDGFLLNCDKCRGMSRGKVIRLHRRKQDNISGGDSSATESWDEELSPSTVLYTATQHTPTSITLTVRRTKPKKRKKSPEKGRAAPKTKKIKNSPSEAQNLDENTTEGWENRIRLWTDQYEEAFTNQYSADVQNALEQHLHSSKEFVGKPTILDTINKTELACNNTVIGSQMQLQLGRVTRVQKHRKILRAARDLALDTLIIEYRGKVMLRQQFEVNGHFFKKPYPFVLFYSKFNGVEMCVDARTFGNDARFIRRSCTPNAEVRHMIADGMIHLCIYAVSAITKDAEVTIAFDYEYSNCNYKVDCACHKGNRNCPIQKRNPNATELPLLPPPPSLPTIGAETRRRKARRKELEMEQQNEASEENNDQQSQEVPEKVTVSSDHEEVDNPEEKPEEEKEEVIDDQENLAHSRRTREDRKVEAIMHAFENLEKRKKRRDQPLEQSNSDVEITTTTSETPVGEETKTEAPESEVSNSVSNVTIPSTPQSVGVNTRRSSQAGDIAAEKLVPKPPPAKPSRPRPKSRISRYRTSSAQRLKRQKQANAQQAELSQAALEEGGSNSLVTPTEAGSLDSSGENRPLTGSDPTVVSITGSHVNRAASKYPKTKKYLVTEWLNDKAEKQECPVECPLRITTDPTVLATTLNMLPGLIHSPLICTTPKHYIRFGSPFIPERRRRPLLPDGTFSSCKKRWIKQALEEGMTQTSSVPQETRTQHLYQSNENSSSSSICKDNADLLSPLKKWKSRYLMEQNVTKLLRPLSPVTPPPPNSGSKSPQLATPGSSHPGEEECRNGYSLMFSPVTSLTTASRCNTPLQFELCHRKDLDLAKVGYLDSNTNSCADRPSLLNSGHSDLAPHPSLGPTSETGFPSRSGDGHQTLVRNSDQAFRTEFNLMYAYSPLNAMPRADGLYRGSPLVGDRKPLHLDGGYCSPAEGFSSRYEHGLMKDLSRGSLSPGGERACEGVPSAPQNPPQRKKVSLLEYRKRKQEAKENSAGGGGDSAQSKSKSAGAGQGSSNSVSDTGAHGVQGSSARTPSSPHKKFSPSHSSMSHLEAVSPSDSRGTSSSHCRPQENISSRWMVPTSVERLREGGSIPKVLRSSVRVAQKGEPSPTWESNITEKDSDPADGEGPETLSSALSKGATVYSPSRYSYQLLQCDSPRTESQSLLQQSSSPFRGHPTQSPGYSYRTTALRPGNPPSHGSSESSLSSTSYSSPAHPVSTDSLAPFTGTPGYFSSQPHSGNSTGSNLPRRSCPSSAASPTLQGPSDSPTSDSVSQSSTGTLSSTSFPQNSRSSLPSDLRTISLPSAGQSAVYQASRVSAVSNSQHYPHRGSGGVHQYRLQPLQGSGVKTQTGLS
The assay is described as above.

B1: endogenous OGT (enzyme, UniProt O15294 1-1046)
chain: MASSVGNVADSTEPTKRMLSFQGLAELAHREYQAGDFEAAERHCMQLWRQEPDNTGVLLLLSSIHFQCRRLDRSAHFSTLAIKQNPLLAEAYSNLGNVYKERGQLQEAIEHYRHALRLKPDFIDGYINLAAALVAAGDMEGAVQAYVSALQYNPDLYCVRSDLGNLLKALGRLEEAKACYLKAIETQPNFAVAWSNLGCVFNAQGEIWLAIHHFEKAVTLDPNFLDAYINLGNVLKEARIFDRAVAAYLRALSLSPNHAVVHGNLACVYYEQGLIDLAIDTYRRAIELQPHFPDAYCNLANALKEKGSVAEAEDCYNTALRLCPTHADSLNNLANIKREQGNIEEAVRLYRKALEVFPEFAAAHSNLASVLQQQGKLQEALMHYKEAIRISPTFADAYSNMGNTLKEMQDVQGALQCYTRAIQINPAFADAHSNLASIHKDSGNIPEAIASYRTALKLKPDFPDAYCNLAHCLQIVCDWTDYDERMKKLVSIVADQLEKNRLPSVHPHHSMLYPLSHGFRKAIAERHGNLCLDKINVLHKPPYEHPKDLKLSDGRLRVGYVSSDFGNHPTSHLMQSIPGMHNPDKFEVFCYALSPDDGTNFRVKVMAEANHFIDLSQIPCNGKAADRIHQDGIHILVNMNGYTKGARNELFALRPAPIQAMWLGYPGTSGALFMDYIITDQETSPAEVAEQYSEKLAYMPHTFFIGDHANMFPHLKKKAVIDFKSNGHIYDNRIVLNGIDLKAFLDSLPDVKIVKMKCPDGGDNADSSNTALNMPVIPMNTIAEAVIEMINRGQIQITINGFSISNGLATTQINNKAATGEEVPRTIIVTTRSQYGLPEDAIVYCNFNQLYKIDPSTLQMWANILKRVPNSVLWLLRFPAVGEPNIQQYAQNMGLPQNRIIFSPVAPKEEHVRRGQLADVCLDTPLCNGHTTGMDVLWAGTPMVTMPGETLASRVAASQLTCLGCLELIAKNRQEYEDIAVKLGTDLEYLKKVRGKVWKQRISSPLFNTKQYTMELERLYLQMWEHYAAGNKPDHMIKPVEVTESA
As to B1, the binding entry in assay [1] was “binds”.

B2: MYC-tagged OGT (O-GlcNAc transferase) in HCT116 cells (enzyme, UniProt O15294 1-1046)
chain: MASSVGNVADSTEPTKRMLSFQGLAELAHREYQAGDFEAAERHCMQLWRQEPDNTGVLLLLSSIHFQCRRLDRSAHFSTLAIKQNPLLAEAYSNLGNVYKERGQLQEAIEHYRHALRLKPDFIDGYINLAAALVAAGDMEGAVQAYVSALQYNPDLYCVRSDLGNLLKALGRLEEAKACYLKAIETQPNFAVAWSNLGCVFNAQGEIWLAIHHFEKAVTLDPNFLDAYINLGNVLKEARIFDRAVAAYLRALSLSPNHAVVHGNLACVYYEQGLIDLAIDTYRRAIELQPHFPDAYCNLANALKEKGSVAEAEDCYNTALRLCPTHADSLNNLANIKREQGNIEEAVRLYRKALEVFPEFAAAHSNLASVLQQQGKLQEALMHYKEAIRISPTFADAYSNMGNTLKEMQDVQGALQCYTRAIQINPAFADAHSNLASIHKDSGNIPEAIASYRTALKLKPDFPDAYCNLAHCLQIVCDWTDYDERMKKLVSIVADQLEKNRLPSVHPHHSMLYPLSHGFRKAIAERHGNLCLDKINVLHKPPYEHPKDLKLSDGRLRVGYVSSDFGNHPTSHLMQSIPGMHNPDKFEVFCYALSPDDGTNFRVKVMAEANHFIDLSQIPCNGKAADRIHQDGIHILVNMNGYTKGARNELFALRPAPIQAMWLGYPGTSGALFMDYIITDQETSPAEVAEQYSEKLAYMPHTFFIGDHANMFPHLKKKAVIDFKSNGHIYDNRIVLNGIDLKAFLDSLPDVKIVKMKCPDGGDNADSSNTALNMPVIPMNTIAEAVIEMINRGQIQITINGFSISNGLATTQINNKAATGEEVPRTIIVTTRSQYGLPEDAIVYCNFNQLYKIDPSTLQMWANILKRVPNSVLWLLRFPAVGEPNIQQYAQNMGLPQNRIIFSPVAPKEEHVRRGQLADVCLDTPLCNGHTTGMDVLWAGTPMVTMPGETLASRVAASQLTCLGCLELIAKNRQEYEDIAVKLGTDLEYLKKVRGKVWKQRISSPLFNTKQYTMELERLYLQMWEHYAAGNKPDHMIKPVEVTESA
With B2, the binding entry in assay [2] and in assay [3] was “binds” each time.

For the origin of these results see article PMC10646014.
